Reference: article PMC5584925

Sequences of proteins named here, by UniProt entry; tags and fusion partners are left off.
UniProt Q14974: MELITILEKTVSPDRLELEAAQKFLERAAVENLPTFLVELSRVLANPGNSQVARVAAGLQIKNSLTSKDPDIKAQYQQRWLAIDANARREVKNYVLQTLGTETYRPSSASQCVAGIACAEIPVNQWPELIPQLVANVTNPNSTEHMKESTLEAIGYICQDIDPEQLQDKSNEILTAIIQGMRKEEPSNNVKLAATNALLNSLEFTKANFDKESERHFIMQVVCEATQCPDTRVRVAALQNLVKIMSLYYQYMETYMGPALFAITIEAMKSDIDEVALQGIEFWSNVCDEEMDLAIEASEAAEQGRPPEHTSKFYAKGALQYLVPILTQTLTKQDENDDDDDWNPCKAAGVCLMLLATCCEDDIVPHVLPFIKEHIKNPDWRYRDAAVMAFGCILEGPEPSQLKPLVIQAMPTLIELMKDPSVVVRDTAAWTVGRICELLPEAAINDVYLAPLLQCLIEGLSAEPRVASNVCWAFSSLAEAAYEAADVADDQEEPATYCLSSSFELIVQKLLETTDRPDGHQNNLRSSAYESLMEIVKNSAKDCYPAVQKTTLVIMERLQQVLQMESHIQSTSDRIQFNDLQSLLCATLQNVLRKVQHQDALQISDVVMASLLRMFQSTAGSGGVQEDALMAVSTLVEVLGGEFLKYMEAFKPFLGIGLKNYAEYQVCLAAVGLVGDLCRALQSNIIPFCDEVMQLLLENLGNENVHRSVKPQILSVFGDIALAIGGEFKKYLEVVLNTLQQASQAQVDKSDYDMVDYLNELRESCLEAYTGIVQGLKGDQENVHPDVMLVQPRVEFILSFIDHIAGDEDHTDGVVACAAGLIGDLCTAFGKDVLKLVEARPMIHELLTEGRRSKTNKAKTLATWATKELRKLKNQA
UniProt Q9UHB6: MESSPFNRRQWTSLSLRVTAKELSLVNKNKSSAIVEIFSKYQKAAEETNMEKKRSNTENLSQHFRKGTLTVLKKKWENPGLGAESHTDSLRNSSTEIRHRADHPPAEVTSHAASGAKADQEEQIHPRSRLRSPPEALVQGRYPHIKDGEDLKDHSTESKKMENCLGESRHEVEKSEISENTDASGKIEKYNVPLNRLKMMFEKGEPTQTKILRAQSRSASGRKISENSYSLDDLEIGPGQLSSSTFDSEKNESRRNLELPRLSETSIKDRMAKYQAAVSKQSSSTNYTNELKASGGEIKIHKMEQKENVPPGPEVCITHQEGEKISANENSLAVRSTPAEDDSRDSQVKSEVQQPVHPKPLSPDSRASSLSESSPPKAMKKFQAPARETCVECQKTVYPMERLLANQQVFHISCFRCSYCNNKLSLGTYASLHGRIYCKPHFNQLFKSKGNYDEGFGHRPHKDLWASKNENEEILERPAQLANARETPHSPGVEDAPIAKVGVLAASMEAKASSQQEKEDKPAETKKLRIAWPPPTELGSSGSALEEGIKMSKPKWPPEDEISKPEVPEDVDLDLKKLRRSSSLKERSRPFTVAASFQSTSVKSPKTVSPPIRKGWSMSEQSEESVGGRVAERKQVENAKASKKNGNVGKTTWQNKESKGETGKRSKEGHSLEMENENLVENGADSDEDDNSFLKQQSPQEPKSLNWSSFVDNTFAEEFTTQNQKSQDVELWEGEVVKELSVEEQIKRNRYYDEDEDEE
UniProt O43795: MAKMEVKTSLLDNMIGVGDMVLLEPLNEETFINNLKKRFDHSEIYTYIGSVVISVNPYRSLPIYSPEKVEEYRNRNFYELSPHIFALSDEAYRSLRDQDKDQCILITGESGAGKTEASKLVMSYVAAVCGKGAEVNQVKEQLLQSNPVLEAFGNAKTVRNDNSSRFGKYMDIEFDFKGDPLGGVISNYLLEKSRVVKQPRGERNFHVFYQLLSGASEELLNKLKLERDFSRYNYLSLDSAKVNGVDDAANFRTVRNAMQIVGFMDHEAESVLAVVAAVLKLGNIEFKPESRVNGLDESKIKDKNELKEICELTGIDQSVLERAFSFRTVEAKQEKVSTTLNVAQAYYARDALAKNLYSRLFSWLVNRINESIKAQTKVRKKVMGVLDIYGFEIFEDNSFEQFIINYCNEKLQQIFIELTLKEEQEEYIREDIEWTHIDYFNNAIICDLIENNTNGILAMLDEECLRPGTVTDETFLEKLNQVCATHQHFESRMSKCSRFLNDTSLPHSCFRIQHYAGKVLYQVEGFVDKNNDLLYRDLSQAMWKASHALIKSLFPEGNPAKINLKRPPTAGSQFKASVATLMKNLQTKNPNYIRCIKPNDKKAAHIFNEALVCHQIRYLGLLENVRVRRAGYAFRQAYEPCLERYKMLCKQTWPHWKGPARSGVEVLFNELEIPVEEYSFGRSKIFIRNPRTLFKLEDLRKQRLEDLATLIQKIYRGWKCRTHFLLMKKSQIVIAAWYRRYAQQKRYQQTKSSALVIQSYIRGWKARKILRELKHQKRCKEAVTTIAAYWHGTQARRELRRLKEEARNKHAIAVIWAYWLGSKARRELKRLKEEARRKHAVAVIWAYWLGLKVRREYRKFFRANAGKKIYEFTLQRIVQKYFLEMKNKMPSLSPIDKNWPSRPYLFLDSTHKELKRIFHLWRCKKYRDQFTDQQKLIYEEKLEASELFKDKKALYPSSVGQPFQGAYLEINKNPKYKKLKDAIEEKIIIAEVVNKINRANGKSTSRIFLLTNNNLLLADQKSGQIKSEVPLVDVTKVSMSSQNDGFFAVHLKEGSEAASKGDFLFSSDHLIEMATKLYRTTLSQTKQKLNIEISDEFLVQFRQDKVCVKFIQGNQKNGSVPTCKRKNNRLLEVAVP

How the values were obtained:
[1] = target: HA-tagged GST-POM121C (801–987) (human) (UniProt A8CG34); assay: affinity purification with mass spectrometry
[2] = target: HA-tagged GST-POM121C (801–987) (human) (UniProt A8CG34); assay: affinity purification with mass spectrometry; GST pull-down from HEK293 cells stably expressing GST-POM121C (801–987), SDS-PAGE, silver staining, three gel portions analysed by LC-nESI-MS/MS

Substance	binding [1]	binding [2]
Importin subunit beta-1 (KPNB1) (from UniProt Q14974 1-876)	binds	
LIM domain and actin-binding protein 1 (from UniProt Q9UHB6 1-759)	binds	
Myosin-Ib (from UniProt O43795 1-1136)	binds	
Angiomotin (from UniProt Q4VCS5 1-1084)		binds

These are yes or no findings as the source states them, for the method shown. In cells and extracts the contact can be indirect. Here binding means that the protein was enriched with, or labelled near, the bait; the list need not be complete. Sequences can lack the tags named with a protein.
